# Primary screen of a compound library

A: 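Assay on Mycobacterium tuberculosis, filed only as a heat shock assay from Cornell; the read-out is not stated. The concentration is filed as 10 mM, unlikely as a test dose, so the dose is not known. Higher reads as stronger inhibition (inferred: compounds with an IC50 in retests scored well above the rest). Of about 69,000 compounds tested this way, about 930 (1.4%) reached 50% or more in at least one test.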
B: 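Whole-cell assay for inhibitors of Mycobacterium tuberculosis growth, labelled Cornell in the record; the read-out is not stated. The concentration is filed as 10 mM, unlikely as a test dose, so the dose is not known. The record gives no direction; compounds strong in two other growth screens of this library score well above the rest, so higher reads as stronger inhibition. Of about 53,000 compounds tested this way, about 900 (1.7%) reached 50% or more in at least one test.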

Values are the deposited “Percent Effect”, in %.
The record does not define 0% and 100%; most values in the screen are far below 50% and negative numbers occur (in some assays of this library far below -100).
Compounds were drawn at random from those tested, without regard to their results.

- CC(C)OCCCN(Cc1ccncc1)Cc1cccc(F)c1F.Cl | A: -21.42%; B: -49.76%
- CCN1CC(CN(C)Cc2nc(-c3ccc(F)cc3F)oc2C)CC1=O (stereo not shown) | A: -9.378%; B: 25.65%
- Cc1cc(CN2CCCn3nc(CCC(=O)O)cc3C2)ccc1F | A: 2.405%; B: 5.706%
- COCCC1(CO)CCCN(Cc2ccc(F)c(C)c2)C1 (stereo not shown) | A: -7.52%; B: 10.77%
- COc1ccc(C(C)NCc2c[nH]nc2C)cc1Br.Cl (stereo not shown) | A: -19.73%; B: 24.7%
- Cc1noc(C)c1CNC(=O)C(C)Oc1ccccc1F (stereo not shown) | A: -7.367%; B: -2.201%
- CCn1cc(Br)c(C(=O)NCc2cccnc2)n1 | A: 3.957%; B: 12.28%
- Cn1cc(CN2CCCC(CCc3ccccc3C(F)(F)F)C2)cn1 (stereo not shown) | A: -1.858%; B: -7.444%
- Cc1nnnn1-c1cc(NCc2cccc(C#N)c2)ccc1F | A: -7.936%; B: 25.73%
- CCc1nc(C2CCCN2C(=O)c2ncoc2CC)no1 (stereo not shown) | A: 4.259%; B: 23.47%
- COCCCN(Cc1ccncc1)C(=O)CSc1ccc(F)cc1 | A: -14.47%; B: 11.88%
- CN1CC(=O)N(c2cccnc2)Cc2c(NC3CC3)ncnc21 | A: -36.94%
- O=C(CC1CN(Cc2ccccc2)CCO1)NC1CCSCC1 (stereo not shown) | A: -1.528%; B: 17.64%
- CCC1CN(C(=O)NCCOc2ccc3c(c2)OCO3)CCO1 (stereo not shown) | A: -2.237%; B: 10.53%
- Cc1ncc(-c2ccnc(N3CC[C@H](O)C3)n2)c(-c2cccnc2)n1 | A: -17.03%; B: 8.663%
- c1cncc(CN2CCCCC2c2ccc(Nc3cnccn3)nc2)c1 (stereo not shown) | A: 7.467%; B: 29.23%
- O=C(OCCNc1ncccn1)c1ccc(Br)s1 | A: -10.84%; B: -3.561%
- CCc1nc(CC(=O)N2CCn3c(nnc3C(C)C)C2)cs1 | A: 4.167%
- CNC(=O)CN1CCC(NC(=O)CC(C)CCc2ccccc2)CC1 (stereo not shown) | A: -13.75%; B: -23.29%
- O=C(NCCN1CCOCC1)c1cnc(-c2ccccc2F)s1 | A: -16.61%; B: -0.4981%
- CCc1nc(CN(C)C2CCN(CCCOc3ccccc3)C2)no1 (stereo not shown) | A: 0.4104%
- CN(C)C(=O)c1cc(S(=O)(=O)N2CCCC2Cn2ccnc2)cn1C (stereo not shown) | A: 37.19%; B: 8.487%
- Cc1ccccc1-n1cc(CNC(=O)CC2C(=O)NCCN2C)cn1 (stereo not shown) | A: -16.49%; B: 2.245%
- CC(C)(CNC(=O)C1CCCCN1S(C)(=O)=O)N1CCOCC1 (stereo not shown) | A: -34.32%; B: -0.9003%
- CNS(=O)(=O)c1ccc(CNC(=O)C2CCCO2)cc1 (stereo not shown) | A: -13.45%
- Cc1ccc(-c2cc(C(=O)NCCCc3csc(N)n3)[nH]n2)o1 | A: 8.894%; B: -60.69%
- CCN(C)c1ncnc2c1CCN(C(=O)c1ccno1)CC2 | A: -5%; B: 26.15%
- CCCS(=O)(=O)N1CCCN(CCCOC)CC1 | A: 7.828%
- Cc1csc(N2CCCN(C(=O)CCNc3ncccn3)CC2)n1 | A: 2.661%
- COCCN(CCOC)C(=O)c1ccn(-c2ccccc2Cl)n1 | A: -23.94%
- Cc1c(F)cc(C(=O)O)cc1S(=O)(=O)Nc1cccc(C(F)F)c1 | A: 5.542%; B: 27.34%
- COC(=O)[C@@H]1Cc2ncn(C)c2CN1S(=O)(=O)Cc1ccccc1 | A: -12.09%; B: -9.2%
- COc1c(CNC2(c3ccc(Cl)cc3)CCC2)c(C)nn1C | A: 5.376%; B: -24.72%
- Cc1ccc(N2CCCN(C(=O)CC3CCCO3)CC2)nn1 (stereo not shown) | A: -1.934%; B: -1.747%
- O=C(O)C(F)(F)F.[H][C@@]12C[C@H](C(=O)NCC3CC3)CN(CCc3ccccc3)[C@]1([H])CCO2 | A: -0.2328%; B: 22.36%
- Cc1nc(-c2cccc(C(=O)O)c2)c[nH]1 | A: 4.517%
- O=C(NCCCn1cccn1)N1CCCC1c1ccncc1 (stereo not shown) | A: 3.271%; B: 0.1659%
- Cc1cnc(N2CCN(C(C)C(N)=O)CC2)nc1 (stereo not shown) | A: 0.5512%; B: -22.59%
- COc1ccc(S(=O)(=O)N2CC(CC(=O)O)c3ccccc32)cc1 (stereo not shown) | A: -13.81%; B: 5.87%
- CC(C)N1CC(c2ccnc(Nc3nccs3)n2)C1 | A: -2.608%; B: 40.81%
- O=C(CCCNCc1ccccc1)N1CCCn2cncc2C1 | A: 15.37%; B: -46.39%
- CN(C)CC1(O)CCCN(c2nc(-c3ccccc3)no2)CC1 (stereo not shown) | A: 4.876%; B: 22.89%

The last 4 entries again:

| SMILES | A | B |
|---|---|---|
| `COc1ccc(S(=O)(=O)N2CC(CC(=O)O)c3ccccc32)cc1` (stereo not shown) | -13.81 | 5.87 |
| `CC(C)N1CC(c2ccnc(Nc3nccs3)n2)C1` | -2.608 | 40.81 |
| `O=C(CCCNCc1ccccc1)N1CCCn2cncc2C1` | 15.37 | -46.39 |
| `CN(C)CC1(O)CCCN(c2nc(-c3ccccc3)no2)CC1` (stereo not shown) | 4.876 | 22.89 |

Data taken from ChEMBL document CHEMBL3988442, “University of Dundee, Small-Polar-MMV Screening Library” (2021).